{"source": "the supplement of paper PMC3334620", "note": "Whole data set: some 33,000 sequences, median “E-score (-0.5 to 0.5)” near -0.0034, cut for the highest 2% near 0.25. This is one part of the list."}
{"target": "T1, Yap3 (UniProt P38749)", "T1 sequence": "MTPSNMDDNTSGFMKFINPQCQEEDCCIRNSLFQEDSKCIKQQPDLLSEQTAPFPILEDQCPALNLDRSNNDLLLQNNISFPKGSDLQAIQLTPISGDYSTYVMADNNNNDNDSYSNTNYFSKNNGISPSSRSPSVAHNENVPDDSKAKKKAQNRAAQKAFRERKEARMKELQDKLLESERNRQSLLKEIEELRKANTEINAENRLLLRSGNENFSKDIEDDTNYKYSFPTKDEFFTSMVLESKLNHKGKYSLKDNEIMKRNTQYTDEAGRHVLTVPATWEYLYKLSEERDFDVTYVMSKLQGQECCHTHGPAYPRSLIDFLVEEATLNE", "assay": "PBM E-score (8-mer binding enrichment) (E-score (-0.5 to 0.5)); higher = stronger / more preferred TF binding", "settings": "protein concentration: 100 nM; construct: GST-full length", "outline": "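Masliner-normalised scans of fluorescent anti-GST signal were the basis for scoring. That signal came from GST-tagged yeast transcription factors applied at about 100-200 nM to double-stranded universal all-10-mer Agilent arrays on fresh or once-stripped slides. Each ungapped eight-base word, pooled with its reverse complement, received an E-score from the Universal PBM Analysis Suite.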"}
{"sequence": "CTAGTTCA", "PBM E-score": 0.1}
{"sequence": "ATTTAGAC", "PBM E-score": 0.106}
{"sequence": "GCGCGTAA", "PBM E-score": 0.23}
{"sequence": "TACTGATA", "PBM E-score": 0.0914}
{"sequence": "AGTCACAC", "PBM E-score": 0.0306}
{"sequence": "CTTTTTGC", "PBM E-score": 0.038}
{"sequence": "AGATGTAG", "PBM E-score": -0.0953}
{"sequence": "TAGCTGAA", "PBM E-score": 0.0584}
{"sequence": "AGCTTAAG", "PBM E-score": 0.0852}
{"sequence": "CTTTGCTC", "PBM E-score": -0.0473}
{"sequence": "AAAGAGCC", "PBM E-score": -0.115}
{"sequence": "ATGGCCTG", "PBM E-score": -0.0904}
{"sequence": "GTCTGCAC", "PBM E-score": -0.064}
{"sequence": "CGATCAAC", "PBM E-score": -0.14}
{"sequence": "GCTATATA", "PBM E-score": 0.101}
{"sequence": "ACGGTCCA", "PBM E-score": -0.143}
{"sequence": "CCCCGCTC", "PBM E-score": -0.294}
{"sequence": "ATGAGATG", "PBM E-score": 0.124}
{"sequence": "TACACTAA", "PBM E-score": 0.077}
{"sequence": "ACCGCCCC", "PBM E-score": -0.091}
{"sequence": "ACATCACG", "PBM E-score": 0.00575}
{"sequence": "GAAACCCC", "PBM E-score": -0.174}
{"sequence": "AGGGCTGC", "PBM E-score": -0.241}
{"sequence": "CATCAGAA", "PBM E-score": 0.146}
{"sequence": "GGACACGA", "PBM E-score": -0.0635}
{"sequence": "ATTTCGGA", "PBM E-score": 0.189}
{"sequence": "GTGTGTCA", "PBM E-score": 0.19}
{"sequence": "GGGTTTGA", "PBM E-score": 0.00605}
{"sequence": "AACTAGGC", "PBM E-score": -0.0303}
{"sequence": "CGCTTCCG", "PBM E-score": -0.104}
{"sequence": "AGTTCCCG", "PBM E-score": -0.0921}
{"sequence": "AGCAAGAA", "PBM E-score": 0.0883}
{"sequence": "GAGCCAAC", "PBM E-score": -0.14}
{"sequence": "GAGTTGAC", "PBM E-score": -0.0209}
{"sequence": "CAGCGATG", "PBM E-score": -0.0121}
{"sequence": "ACCGGACT", "PBM E-score": -0.0832}
{"sequence": "CAGTCCTA", "PBM E-score": -0.0911}
{"sequence": "CGTGGTCA", "PBM E-score": -0.112}
{"sequence": "ATAAAATG", "PBM E-score": 0.276}
{"sequence": "ACTCTGGC", "PBM E-score": -0.15}
{"sequence": "AATATTAC", "PBM E-score": 0.31}
{"sequence": "GGGCGCAC", "PBM E-score": -0.228}
{"sequence": "CTCCCTAC", "PBM E-score": -0.192}
{"sequence": "CAGTATCC", "PBM E-score": 0.14}
{"sequence": "CGGATAAC", "PBM E-score": 0.106}
{"sequence": "GAACCGAC", "PBM E-score": -0.0587}
{"sequence": "AAGGACCA", "PBM E-score": -0.138}
{"sequence": "ATATCGCA", "PBM E-score": -0.155}
{"sequence": "AGCGGGAT", "PBM E-score": -0.0384}
{"sequence": "ATCATCGG", "PBM E-score": -0.125}
{"sequence": "ACCCCCAC", "PBM E-score": -0.376}
{"sequence": "TAAGGGGA", "PBM E-score": -0.134}
{"sequence": "ATAACAAT", "PBM E-score": 0.137}
{"sequence": "ATTGACGC", "PBM E-score": 0.0954}
{"sequence": "ACTTCGAA", "PBM E-score": 0.0916}
{"sequence": "GCGCGTTA", "PBM E-score": 0.121}
{"sequence": "AGCGTCAA", "PBM E-score": -0.0742}
{"sequence": "AGAGTCAT", "PBM E-score": -0.203}
{"sequence": "ATGGTCGA", "PBM E-score": -0.0135}
{"sequence": "AGGATGAC", "PBM E-score": 0.0263}
{"sequence": "ACACGTGT", "PBM E-score": 0.0329}
{"sequence": "ACAGATGG", "PBM E-score": 0.00201}
{"sequence": "CGGTATTA", "PBM E-score": 0.13}
{"sequence": "CCGCCAGC", "PBM E-score": -0.196}
{"sequence": "GGAAGAGA", "PBM E-score": -0.0406}
{"sequence": "GAACGTCA", "PBM E-score": -0.114}
{"sequence": "CTGTTGGA", "PBM E-score": 0.119}
{"sequence": "AGACAGAA", "PBM E-score": 0.0388}
{"sequence": "CCGGGAGG", "PBM E-score": -0.313}
{"sequence": "CGAAATGA", "PBM E-score": 0.136}
{"sequence": "CAGAAGGC", "PBM E-score": -0.157}
{"sequence": "ATTGAGTA", "PBM E-score": 0.238}
{"sequence": "ATTTCATG", "PBM E-score": -0.0106}
{"sequence": "GATATGGC", "PBM E-score": -0.0107}
{"sequence": "GGAGACTA", "PBM E-score": -0.113}
{"sequence": "CTACCAAG", "PBM E-score": -0.126}
{"sequence": "AGCGTACT", "PBM E-score": 0.0579}
{"sequence": "AAGGCCAG", "PBM E-score": -0.142}
{"sequence": "ATATGTTG", "PBM E-score": 0.212}
{"sequence": "CAACGAAG", "PBM E-score": -0.144}
{"sequence": "AGGGCGGG", "PBM E-score": -0.21}
{"sequence": "AGACCAAT", "PBM E-score": 0.135}
{"sequence": "TACTTGAA", "PBM E-score": -0.00176}
{"sequence": "GCAGTACA", "PBM E-score": -0.0831}
{"sequence": "ATGGACAG", "PBM E-score": -0.079}
{"sequence": "ATATCTCC", "PBM E-score": 0.209}
{"sequence": "GTGAAGAA", "PBM E-score": 0.0364}
{"sequence": "GGAAATCA", "PBM E-score": 0.133}
{"sequence": "CCCCAAAG", "PBM E-score": -0.191}
{"sequence": "AGGTGCAA", "PBM E-score": 0.103}
{"sequence": "GTCGAGAA", "PBM E-score": 0.0532}
{"sequence": "ATCGCCAT", "PBM E-score": -0.0375}
{"sequence": "AAACGCGA", "PBM E-score": 0.218}
{"sequence": "GTCGCGTA", "PBM E-score": 0.165}
{"sequence": "ATCCGCTC", "PBM E-score": -0.182}
{"sequence": "ATTAAAAG", "PBM E-score": 0.0983}
{"sequence": "ATAAAGAC", "PBM E-score": 0.0209}
{"sequence": "ACTTATAG", "PBM E-score": -0.0355}
{"sequence": "AAGCGAGT", "PBM E-score": 0.156}
{"sequence": "ACACACAC", "PBM E-score": -0.0039}
{"sequence": "CGAGAATA", "PBM E-score": 0.244}
{"sequence": "GGATTACA", "PBM E-score": 0.0243}
{"sequence": "GAAGGGGC", "PBM E-score": -0.272}
{"sequence": "TGAGAACA", "PBM E-score": 0.149}
{"sequence": "CATCGGCA", "PBM E-score": -0.0615}
{"sequence": "CATCTTGG", "PBM E-score": -0.0384}
{"sequence": "AGTGATAT", "PBM E-score": 0.0783}
{"sequence": "CGAAGTAC", "PBM E-score": 0.0458}
{"sequence": "GACAGACA", "PBM E-score": 0.186}
{"sequence": "AACATGTC", "PBM E-score": 0.0511}
{"sequence": "ACCGCAAA", "PBM E-score": 0.109}
{"sequence": "CCCGGGAA", "PBM E-score": -0.11}
{"sequence": "AATTCTTA", "PBM E-score": 0.134}
{"sequence": "ATTCGGGA", "PBM E-score": -0.101}
{"sequence": "CCATCGTA", "PBM E-score": 0.0169}
{"sequence": "AGTTTATC", "PBM E-score": 0.141}
{"sequence": "CTTTGCCA", "PBM E-score": -0.0701}
{"sequence": "ATTGCGGC", "PBM E-score": -0.0199}
{"sequence": "CTGGAGGC", "PBM E-score": -0.203}
{"sequence": "ATTATCTG", "PBM E-score": 0.119}
{"sequence": "CCGCCGAG", "PBM E-score": -0.0306}
{"sequence": "ATCTTACG", "PBM E-score": 0.208}
{"sequence": "AAGTTTGG", "PBM E-score": 0.142}
{"sequence": "AATAGAGG", "PBM E-score": -0.08}
{"sequence": "ATTAACGA", "PBM E-score": 0.134}
{"sequence": "CGACAACG", "PBM E-score": 0.0404}
{"sequence": "AACTGCGG", "PBM E-score": -0.0201}
{"sequence": "AGAGTATG", "PBM E-score": -0.0564}
{"sequence": "CGATACAG", "PBM E-score": -0.141}
{"sequence": "CCAATTTC", "PBM E-score": 0.187}
{"sequence": "AAGATCGC", "PBM E-score": -0.0451}
{"sequence": "CCGGGAAG", "PBM E-score": -0.149}
{"sequence": "CAGTAGCC", "PBM E-score": -0.186}
{"sequence": "AAATCGCT", "PBM E-score": -0.121}
{"sequence": "CCAGTGGG", "PBM E-score": -0.32}
{"sequence": "ATAGAGTC", "PBM E-score": -0.181}
{"sequence": "ACCTTTGC", "PBM E-score": -0.038}
{"sequence": "GGTACTTA", "PBM E-score": -0.122}
{"sequence": "AGGTTAAC", "PBM E-score": 0.187}
{"sequence": "CATTGACG", "PBM E-score": 0.0656}
{"sequence": "CCGTAGCA", "PBM E-score": -0.0285}
{"sequence": "GAACGAAA", "PBM E-score": 0.148}
{"sequence": "ACACGTCC", "PBM E-score": -0.269}
{"sequence": "CCGTCCGA", "PBM E-score": -0.166}
{"sequence": "ACGACATG", "PBM E-score": 0.119}
{"sequence": "TGGTACCA", "PBM E-score": -0.00998}
{"sequence": "CAGCAATC", "PBM E-score": 0.0309}
{"sequence": "GGGTTAGA", "PBM E-score": -0.144}
{"sequence": "GATAGGAC", "PBM E-score": -0.176}
{"sequence": "CATCAACG", "PBM E-score": -0.00815}
{"sequence": "ACATCACT", "PBM E-score": 0.112}
{"sequence": "AAGAGTGT", "PBM E-score": -0.0373}
{"sequence": "CAAGAAGA", "PBM E-score": 0.08}
{"sequence": "CTATTCAC", "PBM E-score": 0.133}
{"sequence": "AAAACCCG", "PBM E-score": 0.116}
{"sequence": "TAATCCTA", "PBM E-score": 0.0153}
{"sequence": "AAGCGATC", "PBM E-score": 0.0482}
{"sequence": "AAACACAC", "PBM E-score": 0.179}
{"sequence": "CACGAACC", "PBM E-score": -0.0461}
{"sequence": "AACATGAT", "PBM E-score": 0.229}
{"sequence": "GGGGCTAC", "PBM E-score": -0.297}
{"sequence": "ACGGTACT", "PBM E-score": -0.0293}
{"sequence": "GGATAGAC", "PBM E-score": -0.114}
{"sequence": "CGCAAGAG", "PBM E-score": 0.0194}
{"sequence": "ACCTACAT", "PBM E-score": 0.151}
{"sequence": "GGCTGGAA", "PBM E-score": -0.0643}
{"sequence": "ATGTGTCC", "PBM E-score": -0.004}
{"sequence": "CGTTTTGC", "PBM E-score": 0.0549}
{"sequence": "CCAAAGTC", "PBM E-score": -0.174}
{"sequence": "CCTTCACG", "PBM E-score": 0.0549}
{"sequence": "CCCTGCAG", "PBM E-score": -0.081}
{"sequence": "CGTGAGAG", "PBM E-score": -0.147}
